Experimental data from the supplement of paper PMC10849652.
This is one part of the list.

Chains of the proteins cited; added tags and fusions are not shown. Lines headed by an entry give the natural chain unless they say otherwise; changes in a name come on top.
UniProt P55010, whole entry, looked up: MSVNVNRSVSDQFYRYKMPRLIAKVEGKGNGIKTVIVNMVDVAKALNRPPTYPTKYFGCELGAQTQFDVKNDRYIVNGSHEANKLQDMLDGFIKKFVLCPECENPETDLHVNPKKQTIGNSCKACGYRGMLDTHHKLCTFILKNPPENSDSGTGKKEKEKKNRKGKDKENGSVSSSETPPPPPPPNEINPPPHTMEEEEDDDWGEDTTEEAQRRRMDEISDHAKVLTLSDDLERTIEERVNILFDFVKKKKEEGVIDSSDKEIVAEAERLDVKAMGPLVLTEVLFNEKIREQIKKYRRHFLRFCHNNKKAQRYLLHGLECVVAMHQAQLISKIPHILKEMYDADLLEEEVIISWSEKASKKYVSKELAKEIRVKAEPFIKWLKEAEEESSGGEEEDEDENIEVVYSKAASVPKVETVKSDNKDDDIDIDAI
UniProt P11171, whole entry, looked up: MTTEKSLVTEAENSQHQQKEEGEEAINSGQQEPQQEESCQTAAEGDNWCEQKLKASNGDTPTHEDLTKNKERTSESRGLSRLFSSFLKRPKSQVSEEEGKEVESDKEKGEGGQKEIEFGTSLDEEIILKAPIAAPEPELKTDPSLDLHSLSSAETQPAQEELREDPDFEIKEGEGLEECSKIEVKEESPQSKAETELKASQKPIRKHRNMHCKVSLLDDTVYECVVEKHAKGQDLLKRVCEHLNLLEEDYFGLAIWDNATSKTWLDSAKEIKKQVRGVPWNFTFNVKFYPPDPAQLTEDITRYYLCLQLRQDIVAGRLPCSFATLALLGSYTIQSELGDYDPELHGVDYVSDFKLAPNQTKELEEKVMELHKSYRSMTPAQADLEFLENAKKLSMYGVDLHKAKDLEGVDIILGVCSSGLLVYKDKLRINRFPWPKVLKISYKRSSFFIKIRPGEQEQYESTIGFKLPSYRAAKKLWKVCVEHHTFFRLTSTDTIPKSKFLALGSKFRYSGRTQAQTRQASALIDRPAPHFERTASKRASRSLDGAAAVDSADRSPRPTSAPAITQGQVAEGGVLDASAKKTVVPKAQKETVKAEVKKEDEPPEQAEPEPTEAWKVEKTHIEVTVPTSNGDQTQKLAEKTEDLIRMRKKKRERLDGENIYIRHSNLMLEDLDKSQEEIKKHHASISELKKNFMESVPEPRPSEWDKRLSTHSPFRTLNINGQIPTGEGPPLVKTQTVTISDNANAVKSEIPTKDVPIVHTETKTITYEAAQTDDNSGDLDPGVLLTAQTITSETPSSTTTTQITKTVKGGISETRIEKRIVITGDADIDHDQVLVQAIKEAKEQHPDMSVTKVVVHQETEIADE
UniProt Q9BQ52: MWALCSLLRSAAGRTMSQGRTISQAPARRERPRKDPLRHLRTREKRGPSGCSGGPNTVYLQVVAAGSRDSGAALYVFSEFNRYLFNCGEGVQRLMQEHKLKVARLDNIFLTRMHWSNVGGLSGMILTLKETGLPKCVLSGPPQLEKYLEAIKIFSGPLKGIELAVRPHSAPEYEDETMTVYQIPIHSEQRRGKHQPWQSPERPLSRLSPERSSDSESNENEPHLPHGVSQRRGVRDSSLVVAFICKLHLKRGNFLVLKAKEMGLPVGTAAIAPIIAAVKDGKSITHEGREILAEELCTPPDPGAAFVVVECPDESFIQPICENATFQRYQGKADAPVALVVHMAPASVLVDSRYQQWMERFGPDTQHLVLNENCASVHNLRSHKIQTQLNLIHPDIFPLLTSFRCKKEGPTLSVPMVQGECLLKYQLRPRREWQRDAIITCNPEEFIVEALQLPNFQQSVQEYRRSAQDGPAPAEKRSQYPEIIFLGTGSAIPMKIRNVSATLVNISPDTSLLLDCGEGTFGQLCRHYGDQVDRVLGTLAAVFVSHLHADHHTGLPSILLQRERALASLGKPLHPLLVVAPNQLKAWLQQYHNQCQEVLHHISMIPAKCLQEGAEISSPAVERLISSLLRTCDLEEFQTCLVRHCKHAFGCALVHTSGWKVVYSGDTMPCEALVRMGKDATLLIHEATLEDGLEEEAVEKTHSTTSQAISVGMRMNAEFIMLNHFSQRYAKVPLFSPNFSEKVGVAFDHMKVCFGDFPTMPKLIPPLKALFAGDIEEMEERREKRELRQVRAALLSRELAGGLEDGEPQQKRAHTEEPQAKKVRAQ
UniProt Q7L5Y1: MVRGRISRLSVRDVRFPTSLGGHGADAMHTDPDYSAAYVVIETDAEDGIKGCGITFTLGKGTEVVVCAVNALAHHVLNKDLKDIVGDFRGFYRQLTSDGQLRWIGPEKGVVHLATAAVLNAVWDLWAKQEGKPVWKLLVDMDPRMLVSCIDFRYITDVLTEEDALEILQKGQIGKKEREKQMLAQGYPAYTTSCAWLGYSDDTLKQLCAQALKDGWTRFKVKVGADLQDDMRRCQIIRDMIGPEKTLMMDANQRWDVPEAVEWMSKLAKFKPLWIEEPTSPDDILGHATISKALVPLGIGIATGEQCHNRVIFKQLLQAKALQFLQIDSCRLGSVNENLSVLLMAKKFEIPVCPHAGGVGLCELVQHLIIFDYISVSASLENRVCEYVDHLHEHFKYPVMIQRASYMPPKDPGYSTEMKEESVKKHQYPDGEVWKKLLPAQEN

Columns and labels:
Test in all cases: log2 fold change, soluble protein after heating vs DMSO (PISA); higher = thermal stabilisation; K562 lysate, 10 uM; active = over 0.2 and 3.5 SD of the protein, either way, in both replicates (recomputed)
lapatinib = compound: CS(=O)(=O)CCNCc1ccc(-c2ccc3ncnc(Nc4ccc(OCc5cccc(F)c5)c(Cl)c4)c3c2)o1 [lapatinib]
Summary of the method: (§1)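 Quantification was by TMTpro 16plex LC-MS/MS with equalised channel sums, applied to the supernatant after 21,000xg for 90 min. Samples were crude K562 extract at 1 mg/mL protein in PBS pH 7.4 with 1 mM MgCl2, treated with 10 μM compound for 30 min, heated for 3 min across 48°C-58°C, pooled and brought to 0.5% NP-40 at 4°C. Values are log-two fold changes in thermal stability relative to solvent controls, from duplicates.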

pictilisib = compound: CS(=O)(=O)N1CCN(Cc2cc3nc(-c4cccc5[nH]ncc45)nc(N4CCOCC4)c3s2)CC1 [pictilisib]
Summary of the method: as §1

crizotinib = compound: C[C@@H](Oc1cc(-c2cnn(C3CCNCC3)c2)cnc1N)c1c(Cl)ccc(F)c1Cl [crizotinib]
Summary of the method: as §1

[1] = compound: C[C@H](C1=CC=C(C=C1)C(=O)NC2=C3C=CNC3=NC=C2)N
Summary of the method: as §1

duvelisib = compound: C[C@H](Nc1ncnc2nc[nH]c12)c1cc2cccc(Cl)c2c(=O)n1-c1ccccc1 [duvelisib]
Summary of the method: as §1

gandotinib = compound: Cc1cc(Nc2cc(CN3CCOCC3)c3nc(C)c(Cc4ccc(Cl)cc4F)n3n2)n[nH]1 [gandotinib]
Summary of the method: as §1

tozasertib = compound: Cc1cc(Nc2cc(N3CCN(C)CC3)nc(Sc3ccc(NC(=O)C4CC4)cc3)n2)n[nH]1 [tozasertib]
Summary of the method: as §1

doramapimod = compound: Cc1ccc(-n2nc(C(C)(C)C)cc2NC(=O)Nc2ccc(OCCN3CCOCC3)c3ccccc23)cc1 [doramapimod]
Summary of the method: as §1

bafetinib = compound: Cc1ccc(NC(=O)c2ccc(CN3CC[C@H](N(C)C)C3)c(C(F)(F)F)c2)cc1Nc1nccc(-c2cncnc2)n1 [bafetinib]
Summary of the method: as §1

[2] = compound: Cc1cccc(CC(=O)N2CCc3c2ccc(-c2cn(C)c4ncnc(N)c24)c3F)n1
Summary of the method: as §1

nilotinib = compound: Cc1cn(-c2cc(NC(=O)c3ccc(C)c(Nc4nccc(-c5cccnc5)n4)c3)cc(C(F)(F)F)c2)cn1 [nilotinib]
Summary of the method: as §1

[3] = compound: Cc1nc(Nc2n[nH]c3c2CN(C(=O)N[C@H](CN(C)C)c2ccccc2)C3(C)C)c2sccc2n1
Summary of the method: as §1

dasatinib = compound: Cc1nc(Nc2ncc(C(=O)Nc3c(C)cccc3Cl)s2)cc(N2CCN(CCO)CC2)n1 [dasatinib]
Summary of the method: as §1

[4] = compound: Cc1ncc(-c2ccnc(Nc3ccc(S(C)(=O)=O)cc3)n2)n1C(C)C
Summary of the method: as §1

[5] = compound: Cn1cc(-c2ccc3c(c2)CCN3C(=O)Cc2cccc(C(F)(F)F)c2)c2c(N)ncnc21
Summary of the method: as §1

quisinostat = compound: Cn1cc(CNCC2CCN(c3ncc(C(=O)NO)cn3)CC2)c2ccccc21 [quisinostat]
Summary of the method: as §1

tipifarnib = compound: Cn1cncc1[C@@](N)(c1ccc(Cl)cc1)c1ccc2c(c1)c(-c1cccc(Cl)c1)cc(=O)n2C [tipifarnib]
Summary of the method: as §1

[6] = compound: NC(=O)Nc1cc(-c2cccc(F)c2)sc1C(=O)N[C@H]1CCCNC1
Summary of the method: as §1

[7] = compound: NC(=O)c1cnc(N[C@@H]2CCCC[C@@H]2N)nc1Nc1cccc(-n2nccn2)c1
Summary of the method: as §1

[8] = compound: NC1(c2ccc(-c3nc4ccn5c(=O)[nH]nc5c4cc3-c3ccccc3)cc2)CCC1
Summary of the method: as §1

Measured: log2 fold change

EIF5 (UniProt P55010)
inactive: lapatinib -0.005 | pictilisib -0.023 | crizotinib 0.01 | [1] 0.042 | duvelisib 0 | gandotinib -0.029 | tozasertib 0.018 | doramapimod -0.012 | bafetinib 0.027 | [2] -0.028 | nilotinib 0.001 | [3] -0.01 | dasatinib -0.024 | [4] 0.004 | [5] -0.022 | quisinostat 0.033 | tipifarnib 0.001 | [6] -0.01 | [7] -0.016 | [8] 0.002

EPB41 (UniProt P11171)
inactive: lapatinib -0.009 | pictilisib -0.015 | crizotinib -0.007 | [1] 0.04 | duvelisib -0.016 | gandotinib -0.105 | tozasertib 0.035 | doramapimod 0.01 | bafetinib -0.013 | [2] -0.088 | nilotinib -0.01 | [3] 0.024 | dasatinib 0 | [4] -0.007 | [5] 0.031 | quisinostat 0.039 | tipifarnib 0.011 | [6] 0.003 | [7] 0.012 | [8] 0.003

ELAC2 (UniProt Q9BQ52)
inactive: lapatinib -0.006 | pictilisib -0.011 | crizotinib -0.006 | [1] -0.125 | duvelisib 0.003 | gandotinib 0.115 | tozasertib -0.015 | doramapimod 0.033 | bafetinib 0.063 | [2] 0.093 | nilotinib 0.01 | [3] 0.007 | dasatinib 0.01 | [4] 0 | [5] -0.062 | quisinostat 0.002 | tipifarnib -0.006 | [6] -0.009 | [7] 0.009 | [8] 0.004

ENOSF1 (UniProt Q7L5Y1)
inactive: lapatinib 0 | pictilisib -0.019 | crizotinib -0.012 | [1] -0.028 | duvelisib -0.023 | gandotinib 0.005 | tozasertib 0.013 | doramapimod -0.014 | bafetinib -0.008 | [2] 0.078 | nilotinib 0.005 | [3] 0.011 | dasatinib 0 | [4] 0.095 | [5] 0.015 | quisinostat -0.003 | tipifarnib -0.02 | [6] 0.033 | [7] 0.017 | [8] -0.014
